# According to PubChem BioAssay AID662 (National Center for Advancing Translational Sciences (NCATS), 2007):
# Where “and” joins values, the source holds several entries; their conditions need not be identical. Equal entries are not always repeated. The list shows a part of the results. Shown are side measurements of this screen, not its main read-out; they come without a call. Most of these compounds were active or inconclusive in the main read-out, so they are no random draw. The note in brackets gives the kind of curve behind each potency; many fits are weak.
# Test: Cell signaling CRE-BLA (Fsk stim)
# Conditions: CHO CRE-bla reporter (cAMP response element driving beta-lactamase), forskolin EC10, beta-lactamase ratio; measured here: 460 nm blue channel
# Description: NIH Molecular Libraries Screening Centers Network [MLSCN]
# NIH Chemical Genomics Center [NCGC]
# Assay Provider: Marshall W. Nirenberg, U.S. National heart lung & blood institute
# Memories persist for different lengths of time, from seconds or minutes to a lifetime. There are two kinds of memory: short-term memory (STM) and long-term memory (LTM). STM lasts for minutes to hours, which maybe mediated by modifications of molecules involved in synaptic functions. LTM lasts for days or longer, and may be due to the formation of new synapses or restructuring of existing synapses. LTM, but not STM, requires gene transcription and synthesis of proteins. CREB (cyclic-AMP Responsive Element Binding Protein) is one of the candidates plays an important role for enhancement of some types of LTM. CREB, a family of transcription factors, regulates the transcription of genes containing cAMP Responsive Elements (CRE). CRE is a nucleotide sequence often found in the promoter regions of genes that are binding sites for CREB.
# Using a beta-lactamase reporter-gene under control of cAMP responsive element, a cell-based assay [CellSensor(TM) CRE-bla CHO developed by Invitrogen Corp.] was used to measure forskolin-induced signaling. Library compounds were measured for their ability to modulate positively or negatively the action of EC10 NKH 477, a water soluble forskolin, on reporter gene activity. Compounds were screened in a titration series in 1536-well format. Positive and negative modulators were identified based on the AC50 values derived from the screening data.
# NCGC Assay Protocol Summary
# 2000 cells/5uL in Opti-MEM medium containing 0.5% dialyzed FBS, 0.1 mM NEAA, 1 mM sodium pyruvate and 10 mM HEPES was dispensed into 1536-well plates and cells were cultured at 37 degrees Celsius overnight. […] And then the plates were incubated at 37 degrees Celsius for 3 hours. 1 uL of CCF4-dye mixture was added to each well. After incubated at room temperature for 2 hours the plates were measured on an EnVision plate reader at Excitation 405nm, Emission1=460nm and Emission 2=530nm. The %Activity was determined from the ratio of 460nm/530nm.
# Keywords: NIH Roadmap, MLSCN, MLSMR, qHTS, NCGC, CRE, beta-lactamase reporter-gene assay.
row,Compound,AC50
1,Cn1cc(C(=O)NC2CCCCCCC2)c(=O)c2cc(S(=O)(=O)N3CCCC3)ccc21,"0.0631 µM [falling, partial curve]"
2,CSc1nnc2c3cc(C)ccc3n(Cc3ccccc3)c2n1,"5.01 µM [rising, partial curve]"
3,CCSc1nc2ccccc2n1Cc1nc(N)nc(N(C)C)n1,"10 µM [rising, partial curve]"
4,CCCCN(C(=O)NC(=O)Nc1ccccc1OC)S(C)(=O)=O,"0.00398 µM [falling, full curve, poor fit]"
5,COC(=O)c1nnn(-c2nonc2N)c1CN1CCc2ccccc21,"31.6 µM [falling, partial curve, poor fit]"
6,O=C(O)CC1SC(=Nc2ccccc2)N(c2ccccc2)C1=O (configuration not stated),"0.631 µM [falling, full curve, poor fit]"
7,O=C(NCc1ccco1)c1cc(-c2cccs2)on1,"12.6 µM [falling, partial curve, poor fit]"
8,COCC(C)OC(=O)C(C#N)c1nc2ccccc2nc1N1CCN(Cc2ccccc2)CC1 (configuration not stated),"12.6 µM [rising, partial curve]"
9,O=C(Nc1ccccc1C(=O)OCc1nnc(-c2ccccc2)o1)c1ccco1,"6.31 µM [rising, partial curve]"
10,COc1ccc(C(=O)CSc2nnc(-c3ccco3)n2CC2CCCO2)cc1 (configuration not stated),"0.126 µM [falling, partial curve, poor fit]"
11,COc1ncc2nc(-c3cc(F)cc(F)c3)c(=O)n(CCc3ccccc3)c2n1,"12.6 µM [rising, partial curve]"
12,COc1ccc(C2C(C(=O)NCc3ccccn3)c3ccccc3C(=O)N2C)cc1OC (configuration not stated),"0.00316 µM [falling, full curve, poor fit]"
13,CCOC(=O)C1OC1c1ccccc1 (configuration not stated),"10 µM [rising, single point]"
14,CC1(C)CC(=O)C(C=NCCCn2ccnc2)=C(O)C1,"0.398 µM [rising, full curve]"
15,C=CCN1C(=O)CN=C1Nc1cc(C)ccc1C,"0.00316 µM [falling, full curve, poor fit]"
16,Oc1c(I)cc(Cl)c2cccnc12,"12.6 µM [falling, single point] and 31.6 µM [falling, single point]"
17,CCC(=O)OCc1cc2cccc(C)c2[nH]c1=O,"5.01 µM [falling, full curve]"
18,COc1cc(OC)c(OC)cc1CN1CCN(c2ccccc2OC)CC1,"0.00398 µM [falling, full curve, poor fit]"
19,COc1ccc2nc(N3CCCC(O)C3)c(C#N)cc2c1 (configuration not stated),"20 µM [rising, single point]"
20,c1ccc2c(c1)oc1c(NCc3ccc4c(c3)OCO4)ncnc12,"25.1 µM [rising, single point]"
21,CCn1c(=O)cc(SCC(=O)Nc2ccc3c(c2)OCO3)c2ccccc21,"3.98 µM [rising, partial curve]"
22,CCc1cccc(NC(=O)CN(C)S(=O)(=O)c2cccc3nsnc23)c1,"3.16 µM [rising, single point]"
23,C=CCN1C(=O)N(/C=C/C)c2cccc3cccc1c23,"10 µM [rising, partial curve]"

row,Compound,AC50
1,CC(=O)c1ccc(N2CCN(C(=O)C3CCCN(S(=O)(=O)c4cnc[nH]4)C3)CC2)cc1 (configuration not stated),"0.0631 µM [falling, partial curve, poor fit]"
2,CC1CCN(S(=O)(=O)c2ccc3c(c2)CCN3C(=O)CCC(=O)O)CC1,"1 µM [falling, partial curve]"
3,COc1ccc(C2C3=C(CC(C)(C)CC3=O)N(CCN3CCOCC3)C3=C2C(=O)CC(C)(C)C3)cc1,"10 µM [rising, partial curve]"
4,CCOC(=O)c1ccccc1NC(=O)CN(c1ccccc1OCC)S(C)(=O)=O,"0.00316 µM [falling, full curve]"
5,CCCCn1c(SCc2ccc(Cl)cc2)nc2c1c(=O)[nH]c(=O)n2C,"6.31 µM [rising, partial curve]"
6,Cc1ccc(NC(=O)N2CCCN(Cc3ccc(F)cc3)C2)cc1C,"5.01 µM [rising, single point]"
7,CC(=O)c1cccc(OCC(=O)c2cc(C)n(-c3cc(C)on3)c2C)c1,"3.16 µM [falling, partial curve]"
8,O=C(Nc1ccc2nn(-c3ccccc3)nc2c1)c1cccnc1,"25.1 µM [rising, single point]"
9,Cc1cc(-c2ccco2)n2c(nc3ccccc32)c1C#N,"3.16 µM [rising, single point]"
10,Cc1cccn2c(=O)c3cc(C(=O)NC(C)c4ccccc4)c(=N)n(CCCn4ccnc4)c3nc12 (configuration not stated),"12.6 µM [rising, partial curve]"
11,O=C1c2ccccc2C(=O)c2c1ccc(C(=O)O)c2-c1ccc2ccccc2c1,"5.01 µM [rising, single point]"
12,O=[N+]([O-])c1ccc2ncccc2c1CCc1c([N+](=O)[O-])ccc2ncccc12,"2.51 µM [rising, partial curve]"
13,CCCCCn1c(CN2CCN(c3cccc(Cl)c3)CC2)nc2c1c(=O)[nH]c(=O)n2C,"10 µM [rising, partial curve]"
14,O=S(=O)(Cc1ccc(Cl)cc1)N1CCCC1,"5.01 µM [falling, single point]"
15,Cc1cc(Nc2cccc(Cl)c2)n2ncnc2n1,"15.8 µM [rising, partial curve]"
16,Fc1cccc(Cl)c1Cn1nnc2c(NCc3ccccn3)ncnc21,"15.8 µM [rising, single point]"
17,C=CCn1cnc2c(c1=O)c1nc3ccccc3nc1n2/N=C/c1ccccn1,"3.16 µM [rising, partial curve]"
18,N#Cc1cccc(-c2nc3cnc(N4CCOCC4)nc3n(Cc3ccc(F)cc3)c2=O)c1,"7.94 µM [rising, partial curve]"
19,O=C1NC(=O)C2(CCc3ccccc32)N1 (configuration not stated),"0.794 µM [falling, single point]"
20,COc1ccc(-c2nnc(SCC(=O)NCc3ccco3)n2C)cc1,"31.6 µM [falling, single point]"
21,COc1ccc(CNc2nc(-c3ccc(C(=O)N(C)C)cc3)nc3ccccc23)c(OC)c1,"3.98 µM [rising, full curve]"
22,Cc1nc2cnc(OCc3ccccc3)nc2n(Cc2ccc(F)cc2)c1=O,"12.6 µM [rising, partial curve]"
23,CCCNC(=O)c1cc(-c2ccc(Br)cc2)on1,"0.398 µM [falling, partial curve]"

# An excerpt of these results, bar-delimited.
row | Compound | AC50
2 | CSc1nnc2c3cc(C)ccc3n(Cc3ccccc3)c2n1 | 5.01 µM [rising, partial curve]
3 | CCSc1nc2ccccc2n1Cc1nc(N)nc(N(C)C)n1 | 10 µM [rising, partial curve]
4 | CCCCN(C(=O)NC(=O)Nc1ccccc1OC)S(C)(=O)=O | 0.00398 µM [falling, full curve, poor fit]
6 | O=C(O)CC1SC(=Nc2ccccc2)N(c2ccccc2)C1=O (configuration not stated) | 0.631 µM [falling, full curve, poor fit]
9 | O=C(Nc1ccccc1C(=O)OCc1nnc(-c2ccccc2)o1)c1ccco1 | 6.31 µM [rising, partial curve]
10 | COc1ccc(C(=O)CSc2nnc(-c3ccco3)n2CC2CCCO2)cc1 (configuration not stated) | 0.126 µM [falling, partial curve, poor fit]
21 | CCn1c(=O)cc(SCC(=O)Nc2ccc3c(c2)OCO3)c2ccccc21 | 3.98 µM [rising, partial curve]
4 | CCOC(=O)c1ccccc1NC(=O)CN(c1ccccc1OCC)S(C)(=O)=O | 0.00316 µM [falling, full curve]
9 | Cc1cc(-c2ccco2)n2c(nc3ccccc32)c1C#N | 3.16 µM [rising, single point]
11 | O=C1c2ccccc2C(=O)c2c1ccc(C(=O)O)c2-c1ccc2ccccc2c1 | 5.01 µM [rising, single point]
13 | CCCCCn1c(CN2CCN(c3cccc(Cl)c3)CC2)nc2c1c(=O)[nH]c(=O)n2C | 10 µM [rising, partial curve]
14 | O=S(=O)(Cc1ccc(Cl)cc1)N1CCCC1 | 5.01 µM [falling, single point]
18 | N#Cc1cccc(-c2nc3cnc(N4CCOCC4)nc3n(Cc3ccc(F)cc3)c2=O)c1 | 7.94 µM [rising, partial curve]
19 | O=C1NC(=O)C2(CCc3ccccc32)N1 (configuration not stated) | 0.794 µM [falling, single point]
20 | COc1ccc(-c2nnc(SCC(=O)NCc3ccco3)n2C)cc1 | 31.6 µM [falling, single point]
23 | CCCNC(=O)c1cc(-c2ccc(Br)cc2)on1 | 0.398 µM [falling, partial curve]

# (more compounds)

row,Compound,AC50
1,O=C(CSc1nnc2sc3ccccc3n12)c1ccco1,"3.16 µM [falling, partial curve]"
2,CN(C)CCNC(=O)Cn1nc(C(F)F)cc1C1CC1,"5.01 µM [falling, single point]"
3,O=C(Nc1ccc2oc(-c3ccccc3F)nc2c1)c1cncc(Br)c1,"0.316 µM [rising, full curve]"
4,CN(Cc1ccco1)c1nc(-c2ccc3c(c2)OCO3)nc2ccccc12,"6.31 µM [rising, partial curve]"
5,CCOC(=O)C1Cn2c(nc3c(c2=O)C(C)(C)Cc2ccccc2-3)S1 (configuration not stated),"25.1 µM [rising, single point]"
6,CSc1nnc2c3cc(F)ccc3n(Cc3ccccc3)c2n1,"0.501 µM [rising, full curve]"
7,CCOC(=O)COc1cccc2c(=O)n(CC(=O)NCc3ccc4c(c3)OCO4)ccc12,"12.6 µM [rising, partial curve]"
8,Cc1cnc(C(=O)N2CCN(S(=O)(=O)c3ccc4ccccc4c3)CC2)cn1,"0.01 µM [falling, full curve, poor fit]"
9,COc1ccc(C2C(C(=O)Nc3cc(C)on3)c3ccccc3C(=O)N2C)cc1 (configuration not stated),"0.00398 µM [falling, full curve, poor fit]"
10,O=C(CCCN1C(=O)CSc2ncccc21)N1CCN(c2cccc(C(F)(F)F)c2)CC1,"0.1 µM [falling, full curve]"
11,COc1ccccc1CNC(=O)CN(C)CC(=O)Nc1cccc(F)c1,"3.16 µM [rising, single point]"
12,CCCCCCn1c(C(C)NC(=O)c2ccco2)nc2ccccc21 (configuration not stated),"10 µM [rising, single point]"
13,Cc1ccc2cc(CCNC(=O)C(C)C)c(=O)[nH]c2c1C,"25.1 µM [falling, single point]"
14,CCc1nc(N)c(C#N)c(-c2cccnc2)c1C,"10 µM [rising, partial curve]"
15,COC(=O)C1CCN(C(=O)c2ccccc2Oc2ccccc2)CC1,"0.00316 µM [falling, full curve, poor fit]"
16,COCCn1c(SCC(=O)N2CCCc3ccccc32)nc2cccnc21,"25.1 µM [rising, single point]"
17,O=S1(=O)C=C(Oc2ccc(F)cc2)c2ccccc21,"0.00316 µM [falling, full curve, poor fit]"
18,COc1ccc(CCNC(=O)CN(c2ccccc2OC)S(C)(=O)=O)cc1,"31.6 µM [falling, single point]"
19,Cc1cccc(N2CCN(C(=O)c3cc4c(C)nc5ccccc5c4o3)CC2)c1C,"3.98 µM [rising, single point]"
20,Cc1ccc(NC(=O)Cn2nnc(C(=O)NCc3ccccc3)c2N)cc1C,"0.01 µM [falling, full curve, poor fit]"
21,CCCCOC(=O)n1c(SCC(=O)N(CC)CC)nc2ccccc21,"10 µM [rising, partial curve]"
